The test system of the experiment is BDF1 mice, B16 melanoma ip, median survival T/C. The experiment in a line: NCI In Vivo Anticancer Drug Screen. Data for tumor model B16 Melanoma (intraperitoneal) in B6D2F1 (BDF1) mice. As to conditions: T/C endpoint: median survival time, higher T/C = longer survival. An outline of the steps:
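Compounds were tested in mice carrying transplantable tumors. Survival or tumor size was recorded, and each value is the treated-group measurement (T) divided by that of the vehicle-treated control group (C).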

The mark [1] stands for this setting: dose: 100.0 mg/kg/injection, schedule: Q01DX009 (ip), vehicle: saline.
Setting [2] is: dose: 150.0 mg/kg/injection, schedule: Q01DX009 (ip), vehicle: saline.
Setting [3] is: dose: 200.0 mg/kg/injection, schedule: Q01DX009 (ip), vehicle: other.
[4] abbreviates: dose: 400.0 mg/kg/injection, schedule: Q01DX009 (ip), vehicle: other.
Setting [5] is: dose: 200.0 mg/kg/injection, schedule: Q01DX009 (ip), vehicle: saline.
Setting [6] is: dose: 400.0 mg/kg/injection, schedule: Q01DX009 (ip), vehicle: saline.
Where [7] appears, read: dose: 100.0 mg/kg/injection, schedule: Q01DX009 (ip), vehicle: Klucel (hydroxypropylcellulose) (HPC).

The list is a part of this screen's results and no random one: it is rich in T/C values a quarter to a half above the control, in often repeated tests (any T/C) and in doses without a T/C. Other doses and runs of a compound stand elsewhere. T/C is the treated group as % of the vehicle group. Some doses have a count of surviving animals in place of a T/C: the source holds a T/C of zero for them, seemingly a mark for toxic or unscored doses. Some survivor counts are full or nearly so, which does not show that the dose was tolerated: survival well below the control is almost never listed, so the zero probably covers shortened survival too. Survivors were counted at the toxicity check, usually on the fifth day, unless a day is given; later deaths do not show. Schedule codes are those of the source, taken here to give the interval after Q, in days (D) or hours (H), and the number of doses after X. Some doses were run more than once; the values are given in rising order.

`CNC(=O)Oc1cccn(C(=O)NC)c1=O`: the survivor count runs as follows: (dose: 12.5 mg/kg/injection, schedule: Q01DX009 (ip), vehicle: saline) 10 of 10; (dose: 50.0 mg/kg/injection, schedule: Q01DX009 (ip), vehicle: saline) 10 of 10; (dose: 75.0 mg/kg/injection, schedule: Q01DX009 (ip), vehicle: saline) 10 of 10; under setting [1], 10 of 10; under setting [2], 7 of 10 and 9 of 10.

For the compound `CCSc1ccc2c(cc1=O)[C@@H](NC1OC(CO)C(O)C(O)C1O)CCc1cc(OC)c(OC)c(OC)c1-2` (stereo not given in full), the survivor count is reported as 10 of 10 under setting [3] and 10 of 10 under setting [4].

`CC(Cc1ccccc1)NCCn1cnc2c1c(=O)n(C)c(=O)n2C` (stereo not given): the survivor count is, setting by setting: under setting [1], 2 of 10; under setting [5], 0 of 10; under setting [6], 0 of 10.

On to `ClC(Cl)(Cl)C(Nc1ccccc1)Nc1ccccc1`, for which, under “dose: 12.5 mg/kg/injection, schedule: Q01DX009 (ip), vehicle: Klucel (hydroxypropylcellulose) (HPC)”, the survivor count is recorded as 10 of 10.

Turning to `CCS(=O)(=O)Nc1cccc(Nc2c3cccc(C)c3nc3c(C)cccc23)c1OC`, the survivor count (dose: 50.0 mg/kg/injection, schedule: Q01DX009 (ip), vehicle: saline with Tween-80) is given as 10 of 10 and the survivor count (dose: 100.0 mg/kg/injection, schedule: Q01DX009 (ip), vehicle: saline with Tween-80) is 10 of 10.

Take `CNc1ccc(/C=C2\C=Cc3ccccc32)cc1`: the survivor count under setting [7] is reported as 10 of 10.

Consider `CCNC(Cc1ccccc1)C1CCCO1` (stereo not given), for which the survivor count by setting is: under setting [5], 0 of 10; under setting [6], 0 of 10.

In the case of `O=C(CBr)CC(O)(C(F)(F)F)C(F)(F)F`, the survivor count by setting is: (dose: 6.0 mg/kg/injection, schedule: Q04DX003 (ip), vehicle: saline) 10 of 10; (dose: 12.0 mg/kg/injection, schedule: Q04DX003 (ip), vehicle: saline) 4 of 10.

Consider `CC(=O)C(C)(NCc1ccccc1)c1ccccc1` (stereo not given), for which the survivor count is reported as 10 of 10 (dose: 200.0 mg/kg/injection, schedule: Q01DX009 (ip), vehicle: Klucel (hydroxypropylcellulose) (HPC)) and 7 of 10 (dose: 400.0 mg/kg/injection, schedule: Q01DX009 (ip), vehicle: Klucel (hydroxypropylcellulose) (HPC)).

`C=C1C(=O)O[C@@H]2/C=C(/C)[C@@]3(O)C=C[C@](C)(C[C@@H](OC(=O)/C(=C\C)COC(C)=O)[C@@H]12)O3`: the survivor count is given as 8 of 10 (dose: 0.06 mg/kg/injection, schedule: Q01DX009 (ip), vehicle: carboxymethylcellulose (CMC)); 9 of 10 (dose: 0.5 mg/kg/injection, schedule: Q01DX009 (ip), vehicle: carboxymethylcellulose (CMC)); 3 of 10 (dose: 1.0 mg/kg/injection, schedule: Q01DX009 (ip), vehicle: carboxymethylcellulose (CMC)); 1 of 10 (dose: 2.0 mg/kg/injection, schedule: Q01DX009 (ip), vehicle: carboxymethylcellulose (CMC)); 2 of 10 (dose: 4.0 mg/kg/injection, schedule: Q01DX009 (ip), vehicle: carboxymethylcellulose (CMC)); 3 of 10 (dose: 8.0 mg/kg/injection, schedule: Q01DX009 (ip), vehicle: carboxymethylcellulose (CMC)). Also, the survivor count was 6 of 10 and 10 of 10 (dose: 27.0 mg/kg/injection, schedule: Q01DX009 (ip), vehicle: saline with Tween-80); 2 of 10 (dose: 40.0 mg/kg/injection, schedule: Q01DX009 (ip), vehicle: saline with Tween-80); 0 of 10 (dose: 60.0 mg/kg/injection, schedule: Q01DX009 (ip), vehicle: saline with Tween-80).

As to `CN(C)CCCN1c2ccccc2Sc2cnccc21`, the survivor count runs as follows: under setting [2], 5 of 10; (dose: 225.0 mg/kg/injection, schedule: Q01DX009 (ip), vehicle: saline) 0 of 10; (dose: 335.0 mg/kg/injection, schedule: Q01DX009 (ip), vehicle: saline) 0 of 10.

On to `COc1cc(O)c2c(c1)C(=O)c1cc3c(c(O)c1C2=O)CC(OC)C(C)(O)C3=O` (stereo not given), for which the survivor count by setting is: under setting [3], 10 of 10; under setting [4], 10 of 10.

On to `CCCCC(CC)COC(=O)/C=C/C(=O)OCC(CC)CCCC` (stereo not given), for which, under setting [7], the survivor count was 10 of 10.
